Laboratory results: publication PMC5006984

Molecular target: T1, human MICB (human) (UniProt Q29980)
T1 sequence: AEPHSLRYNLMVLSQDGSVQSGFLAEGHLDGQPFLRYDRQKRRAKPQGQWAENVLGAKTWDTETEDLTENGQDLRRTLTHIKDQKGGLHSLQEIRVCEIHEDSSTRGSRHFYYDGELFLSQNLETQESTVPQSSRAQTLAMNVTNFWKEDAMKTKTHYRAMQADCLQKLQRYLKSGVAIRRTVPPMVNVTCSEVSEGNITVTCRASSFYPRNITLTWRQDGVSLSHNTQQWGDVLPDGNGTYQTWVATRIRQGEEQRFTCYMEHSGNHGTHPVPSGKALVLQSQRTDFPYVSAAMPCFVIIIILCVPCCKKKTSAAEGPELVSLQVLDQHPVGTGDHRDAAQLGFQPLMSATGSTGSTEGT
Experiment: affinity purification with mass spectrometry; preparative anti-MICB mAb immunoprecipitation from RhCMV-infected U373-MICB cells lysed at 48 hpi; SDS-PAGE, Coomassie staining; band excised, trypsin, LC-MS/MS

With “RhCMV Rh159 (expressed from RhCMV 68-1 in infected cells)” the binding was “binds”.

These are yes or no findings as the source states them, for the method shown. Binding seen in cells or lysates may run through a third protein. Here binding means that the protein was enriched with, or labelled near, the bait; the list need not be complete.
